In the assay the target is LIM domain and actin binding 1 (LIMA1) (human (endogenous in Huh7)) (UniProt Q9UHB6). Nature of the assay: co-IP; endogenous proteins of Huh7 cells lysed with NP-40 and 1% PMSF; Pierce Magnetic IP/Co-IP Kit; western blotting. (Immunoblotting shows a protein as a band on a membrane.)

Sequences of proteins named here, by UniProt entry; tags and fusion partners are left off.
UniProt Q9UHB6: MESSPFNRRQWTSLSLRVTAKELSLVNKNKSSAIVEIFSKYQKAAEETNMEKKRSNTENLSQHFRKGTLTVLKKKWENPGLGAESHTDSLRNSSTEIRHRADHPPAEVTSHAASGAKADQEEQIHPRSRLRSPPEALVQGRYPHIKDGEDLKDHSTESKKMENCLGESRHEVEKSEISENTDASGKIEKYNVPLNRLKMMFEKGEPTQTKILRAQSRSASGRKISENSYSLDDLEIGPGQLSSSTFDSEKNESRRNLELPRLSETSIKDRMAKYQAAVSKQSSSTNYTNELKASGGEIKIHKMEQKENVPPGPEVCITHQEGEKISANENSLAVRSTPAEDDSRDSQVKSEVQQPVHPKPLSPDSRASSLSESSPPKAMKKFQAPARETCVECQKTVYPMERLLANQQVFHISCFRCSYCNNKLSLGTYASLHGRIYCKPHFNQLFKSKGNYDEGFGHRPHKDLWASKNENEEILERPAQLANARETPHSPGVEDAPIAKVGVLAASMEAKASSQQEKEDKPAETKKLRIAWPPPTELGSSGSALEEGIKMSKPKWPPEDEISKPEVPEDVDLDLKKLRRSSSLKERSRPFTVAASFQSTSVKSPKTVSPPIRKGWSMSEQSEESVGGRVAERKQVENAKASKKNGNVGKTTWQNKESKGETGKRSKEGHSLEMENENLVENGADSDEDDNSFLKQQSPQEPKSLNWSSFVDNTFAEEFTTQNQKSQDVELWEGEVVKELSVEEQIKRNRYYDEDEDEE
UniProt P35226: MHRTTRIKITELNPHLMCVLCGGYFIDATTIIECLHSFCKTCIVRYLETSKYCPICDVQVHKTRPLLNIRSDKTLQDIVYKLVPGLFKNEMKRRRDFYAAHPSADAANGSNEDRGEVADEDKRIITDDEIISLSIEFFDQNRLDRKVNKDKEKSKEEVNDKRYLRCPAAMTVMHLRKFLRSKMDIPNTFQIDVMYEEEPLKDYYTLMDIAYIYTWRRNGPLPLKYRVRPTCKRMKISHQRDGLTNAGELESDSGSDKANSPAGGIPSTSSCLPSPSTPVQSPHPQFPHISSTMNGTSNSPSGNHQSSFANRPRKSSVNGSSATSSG
UniProt P16591: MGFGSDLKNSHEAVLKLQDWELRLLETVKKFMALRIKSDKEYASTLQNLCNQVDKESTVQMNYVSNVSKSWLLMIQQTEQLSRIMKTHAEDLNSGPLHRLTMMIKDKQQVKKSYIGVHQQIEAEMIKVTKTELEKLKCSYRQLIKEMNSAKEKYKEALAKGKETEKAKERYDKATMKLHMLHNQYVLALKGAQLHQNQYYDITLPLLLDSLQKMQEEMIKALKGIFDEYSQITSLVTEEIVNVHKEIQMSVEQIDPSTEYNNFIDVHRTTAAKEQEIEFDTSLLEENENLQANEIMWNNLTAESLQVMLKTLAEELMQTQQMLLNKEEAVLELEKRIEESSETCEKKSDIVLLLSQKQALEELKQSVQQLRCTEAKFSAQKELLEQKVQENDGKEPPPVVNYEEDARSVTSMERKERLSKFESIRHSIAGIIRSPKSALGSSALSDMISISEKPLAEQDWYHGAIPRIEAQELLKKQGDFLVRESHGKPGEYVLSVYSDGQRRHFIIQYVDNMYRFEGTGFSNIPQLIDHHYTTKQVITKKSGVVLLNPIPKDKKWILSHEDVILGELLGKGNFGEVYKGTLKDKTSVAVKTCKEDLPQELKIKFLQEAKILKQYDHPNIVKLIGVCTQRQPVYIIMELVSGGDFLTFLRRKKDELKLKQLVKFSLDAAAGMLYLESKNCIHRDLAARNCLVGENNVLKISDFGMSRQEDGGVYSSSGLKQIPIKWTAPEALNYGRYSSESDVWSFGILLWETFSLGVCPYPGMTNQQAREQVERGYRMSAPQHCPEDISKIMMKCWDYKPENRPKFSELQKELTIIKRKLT

Results are given in words; binding and its absence hold for the method and conditions named. Binding seen in cells or lysates may run through a third protein. Some entries that bind do so weakly or less than the wild type.

On to “BMI1, polycomb ring finger protein (from UniProt P35226 1-326)”, for which the binding result is reported as “binds”.

Turning to FER (from UniProt P16591 1-822), the binding entry is “no binding”.

These data come from PMC9740131.
